Assay results reported in the supplement of paper PMC3334620.
Over roughly 33,000 sequences, “E-score (-0.5 to 0.5)” has its median near -0.015; the highest 2% begin near 0.3. This is one part of the list.

molecular target: T1, Abf1 (UniProt P14164); assay: PBM E-score (8-mer binding enrichment) (E-score (-0.5 to 0.5)); higher = stronger / more preferred TF binding; details: protein concentration: 200 nM; construct: GST-full length
T1 sequence: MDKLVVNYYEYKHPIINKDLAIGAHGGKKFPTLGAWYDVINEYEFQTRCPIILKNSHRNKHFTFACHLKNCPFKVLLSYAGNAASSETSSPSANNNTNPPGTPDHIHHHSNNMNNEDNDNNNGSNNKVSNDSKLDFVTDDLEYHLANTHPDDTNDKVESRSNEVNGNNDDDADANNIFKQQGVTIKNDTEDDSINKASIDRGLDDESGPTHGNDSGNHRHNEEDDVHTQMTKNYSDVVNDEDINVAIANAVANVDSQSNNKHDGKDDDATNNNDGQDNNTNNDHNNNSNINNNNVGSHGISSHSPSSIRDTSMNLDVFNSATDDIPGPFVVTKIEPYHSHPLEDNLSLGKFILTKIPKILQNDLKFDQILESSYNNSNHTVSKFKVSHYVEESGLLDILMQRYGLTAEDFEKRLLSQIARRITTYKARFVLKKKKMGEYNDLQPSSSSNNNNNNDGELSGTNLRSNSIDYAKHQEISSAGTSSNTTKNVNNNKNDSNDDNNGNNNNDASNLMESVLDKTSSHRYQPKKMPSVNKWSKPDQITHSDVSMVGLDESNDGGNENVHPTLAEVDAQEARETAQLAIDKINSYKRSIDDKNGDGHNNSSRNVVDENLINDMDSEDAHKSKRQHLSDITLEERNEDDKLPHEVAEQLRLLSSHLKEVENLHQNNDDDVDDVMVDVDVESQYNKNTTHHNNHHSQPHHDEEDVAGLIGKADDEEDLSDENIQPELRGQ
In short: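 Masliner-normalised scans of fluorescent anti-GST signal were the basis for scoring. That signal came from GST-tagged yeast transcription factors applied at about 100-200 nM to double-stranded universal all-10-mer Agilent arrays on fresh or once-stripped slides. Each ungapped eight-base word, pooled with its reverse complement, received an E-score from the Universal PBM Analysis Suite.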

Sequence	PBM E-score
ATCATACA	0.236
GAAAAGCC	-0.21
TGTTTAAA	-0.101
GCGGCCCC	-0.172
TATGGGCA	-0.0697
CGCGTGTC	0.0878
ATTTTAGC	0.23
GGATTTCA	-0.142
ATCTGGAC	-0.106
AGGTCAGG	-0.146
GGGCCTTA	-0.124
GCCGGGCC	-0.246
ACGAATAA	0.215
ACCAACCG	0.0265
GCGAGGCC	-0.093
GACCAGAA	0.00619
GCAGAACA	-0.122
GTACGAAC	0.418
AGCCCCCA	-0.434
TCCTTGCA	-0.341
AGGTCTCG	-0.136
GTTTCGAA	0.0325
ATGTCAGA	-0.0353
AGATATCC	0.232
AAATGATT	0.275

Sequence	PBM E-score
GTAAAGGA	0.0222
CACTTGAG	-0.156
ACCCCCTA	-0.224
AGGGACAA	-0.0947
ACGATCGC	0.265
AGCGAACA	-0.00595
CTACTGGA	-0.176
TCCGTGAA	0.238
TAAGAGCA	-0.0807
CCCCTGGA	-0.17
CAATAAAG	-0.0422
ACGCGCAT	0.0499
GCTTAGAC	-0.0521
ATGAGTGG	-0.103
CCAAGGCC	-0.253
GCGAATCA	0.156
GCGCTCCC	-0.11
CGCCGGGA	-0.181
CATGTATA	-0.0591
TCCTGGCA	-0.275
ATGTTTGA	0.00846
CACGAACA	0.186
ATAACGTA	0.249
ATGCTGTG	4e-05
AGTTGAAC	0.0182

Sequence	PBM E-score
TGCTCACA	0.181
AGTGTTTC	-0.0199
ATACTCGG	0.0238
AAGAATAC	-0.0674
GACAATTA	0.0768
ACGAGGCG	0.191
AGATAGCT	-0.0374
CCGAGGAG	-0.269
CGGAGTAG	-0.0389
CGGGGACG	-0.0197
AGTGTAAC	-0.00614
GAAGAATA	-0.095
GCCACACA	-0.262
CACGCACA	0.0735
ACTGTGTC	0.0262
AATTAGGG	-0.19
ACGAACAA	0.331
CAATGGTA	0.0522
CTGGCTAA	-0.121
AGGGAGCC	-0.367
ACAATCAC	0.103
GCGCACGC	-0.0586
ATTCGAAC	-0.0201
GCAGGCGC	-0.261
AAGGCCCC	-0.129

Sequence	PBM E-score
GACTCTGA	-0.123
GTCGGGGA	-0.0711
TGGATGAA	0.0531
CGCCCCCG	-0.368
ACTTACGC	-0.0756
AGACATAC	-0.018
AGAGGCAT	-0.132
CCAGCAAC	-0.117
CGGATTTA	0.104
ACGGCGAC	0.224
AATTTAGG	0.107
AGCGTCCG	-0.17
AGTGTGAA	0.0488
GAATGTTA	0.0974
ATGCATCG	0.0268
AAAGAGAC	-0.111
ATCGTAGC	0.201
GACAACTA	0.0809
AAGCATAA	0.0416
ACTCCGGC	0.0156
GATGCTAA	0.00632
AGCTAGAC	0.0184
CTACCCTC	-0.127
ACCAGCAA	0.014
ACGAGCCT	0.00254

Sequence	PBM E-score
GCCCTCGA	-0.262
CGTAGGCC	0.0973
AGCGTATC	-0.022
GATTGGCA	-0.24
GTCATGTA	0.0381
GCGATCAA	0.159
TCAATCCA	0.088
GCACCCAA	-0.239
CTAAGCAG	-0.0714
ATGGGTTG	0.0214
CCGGTCCG	-0.188
CCCGTCTC	-0.0841
TCCGAGGA	-0.0625
ATGAGATA	0.114
GGACTTAC	-0.162
CCTCCTGA	-0.0904
CTCCGGTC	-0.189
GAATGGCC	-0.0962
CAGTCGTC	-0.0143
CATCGAGC	-0.169
AGTCCTAG	-0.211
CCTCCGTA	0.116
GAGTATGC	0.0528
CTACTTAA	-0.0903
CATTCAAG	0.0298

Sequence	PBM E-score
AAGGACCG	-0.16
AGCGTCTC	-0.161
CAGCGTAG	0.00721
CATGTCGG	-0.0428
GGCTCACA	-0.0273
GACACGTA	0.0943
CGTGGTAC	0.161
TCCATACA	0.101
AAAAATGG	-0.0408
ACTTGACC	-0.108
ACCGTGAC	0.167
CTATAGCA	0.0359
AGGAGAGC	-0.383
AAGCGTTG	0.0339
AGAAGACA	0.101
CGGAGCCC	-0.28
TATTTCCA	0.089
CCGGGCAG	-0.259
CAGCCGCG	-0.23
ATACAGTA	0.0839
GTGATAGA	0.192
GCAATGAA	0.0384
AGTTGGCA	-0.0976
ACTTCACT	-0.0471
AATAAGGA	-0.0387

Sequence	PBM E-score
ATTTAAAG	0.185
GCGGAAGC	-0.15
CCGCGATC	0.0149
CTGGGACC	-0.164
AACTCCAG	-0.102
GGCTTAGA	-0.0672
CTGCTCAA	-0.113
AACCATAG	-0.0259
GGCAAGCA	-0.141
ACTGTGAC	0.145
CATTCCAC	-0.0854
TAACACGA	0.228
AGTCCTAA	0.111
ACAGTCGG	-0.121
CTTAGTTA	-0.00602
GGATGACA	0.253
ATCCAAGG	-0.0148
ACACACGT	-0.122
AGCAAAAA	-0.04
TGGACTAA	0.0233
CCGAGGCG	-0.0239
TCACGGCA	0.296

Exported as a markdown table: part of the list above.

| Sequence | PBM E-score |
| --- | --- |
| TATGGGCA | -0.0697 |
| GGATTTCA | -0.142 |
| ATCTGGAC | -0.106 |
| GGGCCTTA | -0.124 |
| ACGAATAA | 0.215 |
| GCAGAACA | -0.122 |
| GTACGAAC | 0.418 |
| TCCTTGCA | -0.341 |
| GTAAAGGA | 0.0222 |
| CACTTGAG | -0.156 |
| ACGCGCAT | 0.0499 |
| CCAAGGCC | -0.253 |
| CATGTATA | -0.0591 |
| ATACTCGG | 0.0238 |
| CCGAGGAG | -0.269 |
| CGGAGTAG | -0.0389 |
| GAAGAATA | -0.095 |
| CACGCACA | 0.0735 |
| AATTAGGG | -0.19 |
| ACGAACAA | 0.331 |
| CAATGGTA | 0.0522 |
| CTGGCTAA | -0.121 |
| AGGGAGCC | -0.367 |
| GCGCACGC | -0.0586 |
| GACTCTGA | -0.123 |
| GTCGGGGA | -0.0711 |
| ACTTACGC | -0.0756 |
| AGAGGCAT | -0.132 |
| CCAGCAAC | -0.117 |
| ACGGCGAC | 0.224 |
| AATTTAGG | 0.107 |
| AGTGTGAA | 0.0488 |
| GAATGTTA | 0.0974 |
| ATGCATCG | 0.0268 |
| ATCGTAGC | 0.201 |
| AAGCATAA | 0.0416 |
| ACCAGCAA | 0.014 |
| GCACCCAA | -0.239 |
| CCTCCTGA | -0.0904 |
| CAGTCGTC | -0.0143 |
| CATCGAGC | -0.169 |
| AGTCCTAG | -0.211 |
| CTACTTAA | -0.0903 |
| GACACGTA | 0.0943 |
| AGAAGACA | 0.101 |
| ACAGTCGG | -0.121 |
| ACACACGT | -0.122 |
| AGCAAAAA | -0.04 |
| CCGAGGCG | -0.0239 |
